Measurements taken from article PMC12667517, “Gigaxonin Potentiates Antiviral Innate Immune Responses by Targeting cGAS and TREX1” (Advanced Science, 2025).
Where two headings read alike, the source gives them in different places. No constants are given. Whether binding was seen depends on the method and setting. In cells and extracts the contact can be indirect. Some results given as binding are weak or reduced against the parent protein; the word gives no strength. For some of these results: Sequences can lack the tags named with a protein. Blank lines part the entries; values can stand above or below the molecule they belong to.

Columns and labels:
[1] = target: T1, endogenous gigaxonin in THP-1 cells (human (endogenous in THP-1)) (UniProt Q9H2C0); assay: co-IP; endogenous proteins of THP-1 cells infected with HSV-1 (MOI = 1) for the indicated times
T1 sequence: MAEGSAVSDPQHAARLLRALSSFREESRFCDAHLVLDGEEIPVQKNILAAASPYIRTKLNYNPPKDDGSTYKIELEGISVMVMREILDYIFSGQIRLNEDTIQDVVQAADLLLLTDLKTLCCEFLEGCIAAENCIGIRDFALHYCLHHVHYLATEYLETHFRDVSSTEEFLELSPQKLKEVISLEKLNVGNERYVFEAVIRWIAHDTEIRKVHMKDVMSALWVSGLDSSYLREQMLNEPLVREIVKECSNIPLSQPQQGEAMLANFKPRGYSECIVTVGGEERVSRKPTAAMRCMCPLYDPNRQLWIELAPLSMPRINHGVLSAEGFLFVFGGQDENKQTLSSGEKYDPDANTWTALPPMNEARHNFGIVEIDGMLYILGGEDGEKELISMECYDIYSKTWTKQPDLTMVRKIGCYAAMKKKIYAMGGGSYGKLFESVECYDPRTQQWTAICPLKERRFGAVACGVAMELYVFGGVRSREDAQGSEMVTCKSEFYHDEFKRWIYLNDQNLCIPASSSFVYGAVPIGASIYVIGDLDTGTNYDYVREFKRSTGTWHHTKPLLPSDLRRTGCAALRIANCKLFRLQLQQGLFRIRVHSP

[2] = target: T1, endogenous gigaxonin in THP-1 cells (human (endogenous in THP-1)); assay: as above; remark: listed apart in the source
Myc-gigaxonin (human) [3] = target: T2, Myc-gigaxonin (human) (UniProt Q9H2C0); assay: co-IP; HEK293T cells transfected with gigaxonin, TREX1 and increasing doses of HA-cGAS, MG-132 for 6 h
T2 sequence: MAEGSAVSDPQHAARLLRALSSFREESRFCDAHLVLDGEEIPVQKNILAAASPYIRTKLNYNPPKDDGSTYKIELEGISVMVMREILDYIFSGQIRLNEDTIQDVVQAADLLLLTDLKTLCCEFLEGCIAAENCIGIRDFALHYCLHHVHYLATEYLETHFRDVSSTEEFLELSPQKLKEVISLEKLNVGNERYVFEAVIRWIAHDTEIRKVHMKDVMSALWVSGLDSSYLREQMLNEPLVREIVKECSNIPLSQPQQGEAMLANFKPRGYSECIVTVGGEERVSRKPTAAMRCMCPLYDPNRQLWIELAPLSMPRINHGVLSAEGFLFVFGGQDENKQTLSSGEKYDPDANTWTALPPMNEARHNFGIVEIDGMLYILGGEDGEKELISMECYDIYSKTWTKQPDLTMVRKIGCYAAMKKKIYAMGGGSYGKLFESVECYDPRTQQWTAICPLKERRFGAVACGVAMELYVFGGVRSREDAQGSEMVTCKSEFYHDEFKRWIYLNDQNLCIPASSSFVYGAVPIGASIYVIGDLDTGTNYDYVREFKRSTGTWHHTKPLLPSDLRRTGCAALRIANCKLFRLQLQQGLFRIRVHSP

Myc-gigaxonin (human) [4] = target: T2, Myc-gigaxonin (human); assay: co-IP; HEK293T cells transfected with tagged plasmids; NP-40 lysis buffer (150 mM NaCl, 1% NP-40, 20 mM Tris-HCl pH 7.4), Protein G Sepharose 2 h, washes with 0.5 M NaCl; for TREX1 the cells were treated with MG132 for 6 h

binding [1]: binds
Molecule: endogenous cGAS in THP-1 cells (from UniProt Q8N884-1 1-522)

binding [2]: binds
B1: endogenous TREX1 in THP-1 cells (protein, UniProt Q9NSU2-3 1-314)
chain: MGSQALPPGPMQTLIFFDMEATGLPFSQPKVTELCLLAVHRCALESPPTSQGPPPTVPPPPRVVDKLSLCVAPGKACSPAASEITGLSTAVLAAHGRQCFDDNLANLLLAFLRRQPQPWCLVAHNGDRYDFPLLQAELAMLGLTSALDGAFCVDSITALKALERASSPSEHGPRKSYSLGSIYTRLYGQSPPDSHTAEGDVLALLSICQWRPQALLRWVDAHARPFGTIRPMYGVTASARTKPRPSAVTTTAHLATTRNTSPSLGESRGTKDLPPVKDPGALSREGLLAPLGLLAILTLAVATLYGLSLATPGE

binding (Myc-gigaxonin (human) [3]): binds
binding (Myc-gigaxonin (human) [4]): binds
B2: Flag-TREX1 (protein, UniProt Q9NSU2-3 1-314)
chain: MGSQALPPGPMQTLIFFDMEATGLPFSQPKVTELCLLAVHRCALESPPTSQGPPPTVPPPPRVVDKLSLCVAPGKACSPAASEITGLSTAVLAAHGRQCFDDNLANLLLAFLRRQPQPWCLVAHNGDRYDFPLLQAELAMLGLTSALDGAFCVDSITALKALERASSPSEHGPRKSYSLGSIYTRLYGQSPPDSHTAEGDVLALLSICQWRPQALLRWVDAHARPFGTIRPMYGVTASARTKPRPSAVTTTAHLATTRNTSPSLGESRGTKDLPPVKDPGALSREGLLAPLGLLAILTLAVATLYGLSLATPGE
